# PubChem BioAssay AID1259425 | University of Nebraska Medical Center, 2018
# Assay: 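Seek colon cancer weak points whose silencing resembles KSR1 loss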 (primary screen)
# Cell system: HCT116 human colon cancer cells
# Reagent: siRNA pool against human genes, 50 nM siRNA
# Measurement: 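mRNA of six signature genes measured together by branched-DNA assay after 50 nM siRNA pool, blank removed, divided by geometric mean of two housekeeping genes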
# Direction: BNIP3L mRNA: higher = more BNIP3L transcript after knockdown
# In all, the deposit lists about 14,000 reagents; below is a part drawn at random. Not all columns of the deposit are shown. Reagent sequences are not shown. Not stated in the record: the time to read-out.
Gene,"BNIP3L mRNA, set 1"
GMFB,0.0501
RPS28,0.0748
STAG3,0.096
BCL2A1,0.12
NLRP13,0.134
ZBTB10,0.116
BAZ1B,0.16
CD2AP,0.143
WDR33,0.0839
TAF6,0.122
S100A7,0.135
ZIC2,0.0699
NDP,0.146
LYAR,0.093
PIGX,0.198
WHR1,0.104
CRIP2,0.315
PLCL2,0.189
PIP5K1C,0.073
CDC42BPA,0.0443

3 neighbouring entries from above, for reference:
Gene,"BNIP3L mRNA, set 1"
RPS28,0.0748
STAG3,0.096
BCL2A1,0.12
